Amino acid sequences for entries named in this document (tags omitted).
UniProt Q9HC98: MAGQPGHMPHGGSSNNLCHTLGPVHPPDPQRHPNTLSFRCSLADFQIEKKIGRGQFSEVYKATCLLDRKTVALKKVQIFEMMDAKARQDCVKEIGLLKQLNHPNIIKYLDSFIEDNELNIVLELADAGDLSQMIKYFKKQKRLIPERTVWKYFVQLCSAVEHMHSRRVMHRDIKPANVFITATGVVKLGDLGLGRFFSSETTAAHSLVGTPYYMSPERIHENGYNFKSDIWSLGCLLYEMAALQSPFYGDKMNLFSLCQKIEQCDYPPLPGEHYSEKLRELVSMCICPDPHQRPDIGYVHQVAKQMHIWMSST
UniProt O43524: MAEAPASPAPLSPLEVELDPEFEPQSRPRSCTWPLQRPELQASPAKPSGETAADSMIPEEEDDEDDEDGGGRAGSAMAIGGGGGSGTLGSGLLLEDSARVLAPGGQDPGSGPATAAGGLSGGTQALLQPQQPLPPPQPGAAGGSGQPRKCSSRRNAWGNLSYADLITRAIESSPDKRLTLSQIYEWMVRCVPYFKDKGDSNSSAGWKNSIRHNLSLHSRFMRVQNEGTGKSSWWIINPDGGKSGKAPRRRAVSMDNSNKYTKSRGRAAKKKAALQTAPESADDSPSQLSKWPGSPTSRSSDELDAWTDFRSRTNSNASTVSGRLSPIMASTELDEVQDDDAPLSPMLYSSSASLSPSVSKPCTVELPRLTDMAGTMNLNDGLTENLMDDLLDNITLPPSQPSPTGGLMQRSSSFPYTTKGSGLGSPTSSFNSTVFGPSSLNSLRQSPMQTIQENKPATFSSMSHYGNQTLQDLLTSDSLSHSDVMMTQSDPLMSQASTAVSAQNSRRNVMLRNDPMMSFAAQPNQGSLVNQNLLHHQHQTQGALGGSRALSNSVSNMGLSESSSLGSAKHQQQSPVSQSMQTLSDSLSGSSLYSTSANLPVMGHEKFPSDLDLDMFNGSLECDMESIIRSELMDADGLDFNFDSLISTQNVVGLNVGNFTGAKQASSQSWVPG

According to PMC11387829:

Biological target: Flag-NEK6-WT (human) (UniProt Q9HC98)
Assay: affinity purification with mass spectrometry; IP by Flag tag from NCI/ADR-RES cells loaded with control vector or Flag-NEK6; silver-stained SDS-PAGE gel cut and analysed by LC-MS/MS

How did the binding turn out when “FOXO3 (endogenous) (from UniProt O43524 1-673)” was run?
The binding was “binds”.

Results are given in words; binding and its absence hold for the method and conditions named. In cells and extracts the contact can be indirect. These calls come from enrichment with a bait or labelling near it, and not all partners need be listed.
